Experimental data reported in paper PMC12225019.

The chains behind the UniProt entries cited, without tags or fusion partners.
UniProt P52926: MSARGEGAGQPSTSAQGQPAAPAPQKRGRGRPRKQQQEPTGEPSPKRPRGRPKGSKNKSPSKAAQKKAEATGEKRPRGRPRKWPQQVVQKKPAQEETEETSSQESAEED

T1: Myc-INAVA (innate immunity activator) (human) (UniProt Q3KP66)
T1 sequence: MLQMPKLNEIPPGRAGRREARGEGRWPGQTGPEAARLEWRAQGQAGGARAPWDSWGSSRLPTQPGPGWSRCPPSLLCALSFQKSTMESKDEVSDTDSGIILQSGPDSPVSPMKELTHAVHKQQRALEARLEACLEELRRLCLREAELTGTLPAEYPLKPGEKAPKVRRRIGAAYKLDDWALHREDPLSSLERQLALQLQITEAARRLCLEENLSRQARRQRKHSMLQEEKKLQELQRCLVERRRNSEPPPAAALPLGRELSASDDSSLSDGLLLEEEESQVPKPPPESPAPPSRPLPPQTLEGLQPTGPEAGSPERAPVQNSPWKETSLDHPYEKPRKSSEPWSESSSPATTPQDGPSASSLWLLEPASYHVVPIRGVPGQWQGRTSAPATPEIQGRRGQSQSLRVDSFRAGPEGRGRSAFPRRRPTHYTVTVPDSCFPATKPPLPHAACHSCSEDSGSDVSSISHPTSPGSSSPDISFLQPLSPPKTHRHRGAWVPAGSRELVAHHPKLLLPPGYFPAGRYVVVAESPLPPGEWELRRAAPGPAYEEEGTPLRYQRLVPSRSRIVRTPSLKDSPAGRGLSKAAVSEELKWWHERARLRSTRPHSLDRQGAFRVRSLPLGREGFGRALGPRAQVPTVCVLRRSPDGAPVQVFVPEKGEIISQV


How the values were obtained:
[1] = molecular target: T1, Myc-INAVA (innate immunity activator) (human); assay: affinity purification with mass spectrometry; immunoprecipitation and mass spectrometry to find the target proteins of INAVA in NOF activation; bait, antibody and cells not told in the text shown (Figure S3A)
[2] = molecular target: high mobility group protein A2 (HMGA2) (human (endogenous in NOF#1)) (UniProt P52926); assay: affinity purification with mass spectrometry; IP-coupled MS analysis in search of the kinase of HMGA2; bait and cells not told in the text shown

binding [1] | binding [2] | Molecule
binds | – | high mobility group protein A2 (HMGA2) (from UniProt P52926 1-109)
– | binds | vaccinia‐related kinase 1 (VRK1) (enzyme, UniProt Q99986 1-396) MPRVKAAQAGRQSSAKRHLAEQFAVGEIITDMAKKEWKVGLPIGQGGFGCIYLADMNSSESVGSDAPCVVKVEPSDNGPLFTELKFYQRAAKPEQIQKWIRTRKLKYLGVPKYWGSGLHDKNGKSYRFMIMDRFGSDLQKIYEANAKRFSRKTVLQLSLRILDILEYIHEHEYVHGDIKASNLLLNYKNPDQVYLVDYGLAYRYCPEGVHKEYKEDPKRCHDGTIEFTSIDAHNGVAPSRRGDLEILGYCMIQWLTGHLPWEDNLKDPKYVRDSKIRYRENIASLMDKCFPEKNKPGEIAKYMETVKLLDYTEKPLYENLRDILLQGLKAIGSKDDGKLDLSVVENGGLKAKTITKKRKKEIEESKEPGVEDTEWSNTQTEEAIQTRSRTRKRVQK

These are yes or no findings as the source states them, for the method shown. Binding seen in cells or lysates may run through a third protein. These calls come from enrichment with a bait or labelling near it, and not all partners need be listed. For some assays here: Tags and fused reporters may be left off the sequences shown.
